Results as given in paper doi:10.1101/2021.04.30.442090.
No constants are given. Whether binding was seen depends on the method and setting. Binding seen in cells or lysates may run through a third protein. Some results given as binding are weak or reduced against the parent protein; the word gives no strength. Tags and fused reporters may be left off the sequences shown.

T1: myc-tagged Mtr10 (S. cerevisiae) (UniProt Q99189)
T1 sequence: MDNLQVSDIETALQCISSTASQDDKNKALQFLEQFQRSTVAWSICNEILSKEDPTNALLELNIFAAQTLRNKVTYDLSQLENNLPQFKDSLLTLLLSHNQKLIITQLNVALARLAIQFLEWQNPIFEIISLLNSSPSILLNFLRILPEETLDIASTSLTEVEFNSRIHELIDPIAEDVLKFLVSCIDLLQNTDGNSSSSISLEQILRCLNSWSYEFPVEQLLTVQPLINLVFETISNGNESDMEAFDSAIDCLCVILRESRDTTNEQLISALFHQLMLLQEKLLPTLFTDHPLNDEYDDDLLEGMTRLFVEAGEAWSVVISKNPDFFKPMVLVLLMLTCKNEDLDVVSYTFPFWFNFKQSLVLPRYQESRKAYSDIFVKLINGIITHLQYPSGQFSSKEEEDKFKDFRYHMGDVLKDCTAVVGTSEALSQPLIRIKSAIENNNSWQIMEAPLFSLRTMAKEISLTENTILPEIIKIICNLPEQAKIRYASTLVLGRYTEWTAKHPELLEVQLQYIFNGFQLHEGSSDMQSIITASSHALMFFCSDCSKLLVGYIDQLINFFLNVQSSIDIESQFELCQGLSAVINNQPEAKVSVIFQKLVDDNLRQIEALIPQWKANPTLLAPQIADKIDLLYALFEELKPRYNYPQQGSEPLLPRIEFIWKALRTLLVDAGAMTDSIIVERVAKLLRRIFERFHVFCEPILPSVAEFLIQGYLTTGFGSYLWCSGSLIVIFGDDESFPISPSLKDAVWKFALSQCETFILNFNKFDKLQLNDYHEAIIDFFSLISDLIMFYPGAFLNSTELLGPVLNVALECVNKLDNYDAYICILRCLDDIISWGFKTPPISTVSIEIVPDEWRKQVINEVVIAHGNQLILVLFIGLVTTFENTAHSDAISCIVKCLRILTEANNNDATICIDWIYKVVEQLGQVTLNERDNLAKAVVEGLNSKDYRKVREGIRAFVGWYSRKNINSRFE

T2: GFP-tagged Est1 (S. cerevisiae) (UniProt P17214)
T2 sequence: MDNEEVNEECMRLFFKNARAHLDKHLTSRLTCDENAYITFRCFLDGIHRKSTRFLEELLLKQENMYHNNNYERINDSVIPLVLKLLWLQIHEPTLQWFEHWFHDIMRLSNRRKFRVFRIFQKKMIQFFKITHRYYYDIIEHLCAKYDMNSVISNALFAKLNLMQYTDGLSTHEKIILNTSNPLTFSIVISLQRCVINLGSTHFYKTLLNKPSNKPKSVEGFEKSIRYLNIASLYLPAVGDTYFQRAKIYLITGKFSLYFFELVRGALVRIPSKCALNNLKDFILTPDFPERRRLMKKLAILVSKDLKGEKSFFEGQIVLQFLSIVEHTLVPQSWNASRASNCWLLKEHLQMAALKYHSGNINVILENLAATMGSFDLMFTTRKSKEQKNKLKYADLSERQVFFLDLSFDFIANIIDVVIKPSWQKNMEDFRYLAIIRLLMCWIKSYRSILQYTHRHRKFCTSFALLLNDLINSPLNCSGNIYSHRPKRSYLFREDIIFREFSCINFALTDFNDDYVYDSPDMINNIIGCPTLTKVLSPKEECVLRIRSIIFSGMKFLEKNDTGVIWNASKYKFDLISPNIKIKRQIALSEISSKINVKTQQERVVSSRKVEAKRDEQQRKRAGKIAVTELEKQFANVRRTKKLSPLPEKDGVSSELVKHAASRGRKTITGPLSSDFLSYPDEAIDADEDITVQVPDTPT

T3: GFP-tagged Pop1 (S. cerevisiae) (UniProt P41812)
T3 sequence: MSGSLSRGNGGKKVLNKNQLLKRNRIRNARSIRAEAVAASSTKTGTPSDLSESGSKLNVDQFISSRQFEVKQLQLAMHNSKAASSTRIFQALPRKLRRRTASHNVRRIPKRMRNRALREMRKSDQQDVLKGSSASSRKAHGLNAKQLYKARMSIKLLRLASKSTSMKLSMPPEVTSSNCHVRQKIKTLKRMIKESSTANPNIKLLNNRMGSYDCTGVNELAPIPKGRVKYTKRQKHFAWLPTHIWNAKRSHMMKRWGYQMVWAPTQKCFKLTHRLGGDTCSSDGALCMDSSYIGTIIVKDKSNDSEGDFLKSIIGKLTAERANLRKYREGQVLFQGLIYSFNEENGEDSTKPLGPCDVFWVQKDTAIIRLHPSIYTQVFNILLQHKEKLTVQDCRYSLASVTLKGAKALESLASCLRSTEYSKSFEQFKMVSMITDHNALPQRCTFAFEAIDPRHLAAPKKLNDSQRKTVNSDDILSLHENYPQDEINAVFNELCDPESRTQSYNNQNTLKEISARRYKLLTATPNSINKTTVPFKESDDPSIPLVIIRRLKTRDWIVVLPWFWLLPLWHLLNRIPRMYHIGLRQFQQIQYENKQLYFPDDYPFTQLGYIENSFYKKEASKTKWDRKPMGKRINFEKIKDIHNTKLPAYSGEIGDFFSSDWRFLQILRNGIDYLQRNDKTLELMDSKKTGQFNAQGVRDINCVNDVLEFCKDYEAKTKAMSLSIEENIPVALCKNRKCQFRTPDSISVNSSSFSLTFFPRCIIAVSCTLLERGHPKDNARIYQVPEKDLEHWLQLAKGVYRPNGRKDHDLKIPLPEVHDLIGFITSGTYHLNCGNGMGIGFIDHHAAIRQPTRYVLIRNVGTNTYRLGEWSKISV

T4: GFP-tagged Smb1 (S. cerevisiae) (UniProt P40018)
T4 sequence: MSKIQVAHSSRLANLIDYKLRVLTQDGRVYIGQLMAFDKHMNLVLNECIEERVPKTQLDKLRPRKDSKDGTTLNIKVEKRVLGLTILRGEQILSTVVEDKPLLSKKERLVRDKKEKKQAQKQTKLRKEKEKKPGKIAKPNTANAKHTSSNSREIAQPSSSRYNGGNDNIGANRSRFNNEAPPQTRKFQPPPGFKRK


Assays:
Assay in all cases: co-IP
[1] = biological target: T1, myc-tagged Mtr10 (S. cerevisiae)
[2] = biological target: T2, GFP-tagged Est1 (S. cerevisiae)
[3] = biological target: T3, GFP-tagged Pop1 (S. cerevisiae)
[4] = biological target: T4, GFP-tagged Smb1 (S. cerevisiae)

Row | binding [1] | binding [2] | binding [3] | binding [4] | Binder
1 | no binding | – | – | – | Yku70 (protein, UniProt P32807 1-602) MRSVTNAFGNSGELNDQVDETGYRKFDIHEGILFCIELSETMFKESSDLEYKSPLLEILESLDELMSQLVITRPGTAIGCYFYYCNREDAKEGIYELFPLRDINATFMKKLNDLLEDLSSGRISLYDYFMFQQTGSEKQVRLSVLFTFMLDTFLEEIPGQKQLSNKRVFLFTDIDKPQEAQDIDERARLRRLTIDLFDNKVNFATFFIGYADKPFDNEFYSDILQLGSHTNENTGLDSEFDGPSTKPIDAKYIKSRILRKKEVKRIMFQCPLILDEKTNFIVGVKGYTMYTHEKAGVRYKLVYEHEDIRQEAYSKRKFLNPITGEDVTGKTVKVYPYGDLDINLSDSQDQIVMEAYTQKDAFLKIIGFRSSSKSIHYFNNIDKSSFIVPDEAKYEGSIRTLASLLKILRKKDKIAILWGKLKSNSHPSLYTLSPSSVKDYNEGFYLYRVPFLDEIRKFPSLLSYDDGSEHKLDYDNMKKVTQSIMGYFNLRDGYNPSDFKNPLLQKHYKVLHDYLLQIETTFDENETPNTKKDRMMREDDSLRKLYYIRNKILESEKSEDPIIQRLNKYVKIWNMFYKKFNDDNISIKEEKKPFDKKPKFNI
2 | – | no binding | no binding | binds | myc-tagged Mtr10 (protein, UniProt Q99189 1-972) MDNLQVSDIETALQCISSTASQDDKNKALQFLEQFQRSTVAWSICNEILSKEDPTNALLELNIFAAQTLRNKVTYDLSQLENNLPQFKDSLLTLLLSHNQKLIITQLNVALARLAIQFLEWQNPIFEIISLLNSSPSILLNFLRILPEETLDIASTSLTEVEFNSRIHELIDPIAEDVLKFLVSCIDLLQNTDGNSSSSISLEQILRCLNSWSYEFPVEQLLTVQPLINLVFETISNGNESDMEAFDSAIDCLCVILRESRDTTNEQLISALFHQLMLLQEKLLPTLFTDHPLNDEYDDDLLEGMTRLFVEAGEAWSVVISKNPDFFKPMVLVLLMLTCKNEDLDVVSYTFPFWFNFKQSLVLPRYQESRKAYSDIFVKLINGIITHLQYPSGQFSSKEEEDKFKDFRYHMGDVLKDCTAVVGTSEALSQPLIRIKSAIENNNSWQIMEAPLFSLRTMAKEISLTENTILPEIIKIICNLPEQAKIRYASTLVLGRYTEWTAKHPELLEVQLQYIFNGFQLHEGSSDMQSIITASSHALMFFCSDCSKLLVGYIDQLINFFLNVQSSIDIESQFELCQGLSAVINNQPEAKVSVIFQKLVDDNLRQIEALIPQWKANPTLLAPQIADKIDLLYALFEELKPRYNYPQQGSEPLLPRIEFIWKALRTLLVDAGAMTDSIIVERVAKLLRRIFERFHVFCEPILPSVAEFLIQGYLTTGFGSYLWCSGSLIVIFGDDESFPISPSLKDAVWKFALSQCETFILNFNKFDKLQLNDYHEAIIDFFSLISDLIMFYPGAFLNSTELLGPVLNVALECVNKLDNYDAYICILRCLDDIISWGFKTPPISTVSIEIVPDEWRKQVINEVVIAHGNQLILVLFIGLVTTFENTAHSDAISCIVKCLRILTEANNNDATICIDWIYKVVEQLGQVTLNERDNLAKAVVEGLNSKDYRKVREGIRAFVGWYSRKNINSRFE
